Results: PubChem BioAssay (EPA / NIEHS)
“And” between values parts separate entries of the source, which are not always exact repeats. Equal values may be shown once. This list was built around the results that the source calls inconclusive (neither active nor inactive); the mix of calls is not that of the screen. For part of these data: Potencies of inconclusive entries are doubtful fits and often do not repeat. The source made the active and inactive calls. How the source made its calls: active means hit-call score of the fitted dose curve at least 0.9, where 1 is the maximum; inconclusive means response in the unintended direction; inactive means score below 0.9.

Amino acid sequences for entries named in this document (tags omitted). A change or cut given only in a name is not applied to a line headed by its entry.
UniProt P33261, whole entry, looked up: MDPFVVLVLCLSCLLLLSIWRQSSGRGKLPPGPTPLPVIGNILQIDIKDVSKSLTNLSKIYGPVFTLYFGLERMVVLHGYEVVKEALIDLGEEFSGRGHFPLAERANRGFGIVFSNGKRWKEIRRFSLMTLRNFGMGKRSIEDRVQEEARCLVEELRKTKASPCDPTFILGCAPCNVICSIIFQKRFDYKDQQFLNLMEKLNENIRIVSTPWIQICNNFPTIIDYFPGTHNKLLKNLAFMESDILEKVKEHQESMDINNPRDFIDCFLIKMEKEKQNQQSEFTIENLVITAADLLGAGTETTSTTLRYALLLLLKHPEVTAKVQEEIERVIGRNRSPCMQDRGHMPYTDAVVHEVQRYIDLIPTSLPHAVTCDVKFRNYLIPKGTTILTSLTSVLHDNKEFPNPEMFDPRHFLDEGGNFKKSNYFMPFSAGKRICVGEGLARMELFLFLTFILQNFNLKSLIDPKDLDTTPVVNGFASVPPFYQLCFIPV
UniProt P04406: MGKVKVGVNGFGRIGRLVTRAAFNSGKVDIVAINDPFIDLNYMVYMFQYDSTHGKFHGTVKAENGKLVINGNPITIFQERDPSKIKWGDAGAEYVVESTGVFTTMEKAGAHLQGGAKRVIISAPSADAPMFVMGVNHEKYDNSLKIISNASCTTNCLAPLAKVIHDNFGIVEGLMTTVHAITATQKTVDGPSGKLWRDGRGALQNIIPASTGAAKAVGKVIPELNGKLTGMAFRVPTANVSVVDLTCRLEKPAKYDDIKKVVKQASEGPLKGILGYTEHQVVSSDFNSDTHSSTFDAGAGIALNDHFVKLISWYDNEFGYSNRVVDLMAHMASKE
UniProt P20813: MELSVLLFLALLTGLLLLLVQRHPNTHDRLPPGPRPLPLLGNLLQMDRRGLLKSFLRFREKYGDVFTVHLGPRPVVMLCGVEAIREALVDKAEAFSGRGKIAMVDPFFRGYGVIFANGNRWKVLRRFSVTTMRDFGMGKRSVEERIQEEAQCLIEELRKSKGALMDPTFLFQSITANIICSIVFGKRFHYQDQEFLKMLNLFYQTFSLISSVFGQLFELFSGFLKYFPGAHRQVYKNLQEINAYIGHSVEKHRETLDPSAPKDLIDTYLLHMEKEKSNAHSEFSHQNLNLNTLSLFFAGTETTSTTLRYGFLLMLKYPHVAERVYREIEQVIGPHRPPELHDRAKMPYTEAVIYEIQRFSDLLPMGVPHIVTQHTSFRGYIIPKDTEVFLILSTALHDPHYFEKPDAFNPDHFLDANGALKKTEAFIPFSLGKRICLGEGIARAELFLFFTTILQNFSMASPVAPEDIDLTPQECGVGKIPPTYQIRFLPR

What was measured:
[1] = read-out: xenobiotic metabolism (CYP1A2), CYP1A2 (gene 1544); assay: CLD_CYP1A2_6hr: CellzDirect (CLD) Gene Expression Assay for xenobiotic metabolism (CYP1A2) at 6 hours (AID 2283663);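 further: potency is for induction meaning a rise in mRNA above DMSO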
Method in brief: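 Primary human hepatocytes from two donor preparations, dosed daily with multiple concentrations in 0.2% DMSO and harvested at 6 h. CYP1A2 mRNA induction measured by chemiluminescent qNPA, gain of signal fitted against DMSO; cytotoxicity flagged morphologically.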

[2] = read-out: xenobiotic metabolism (CYP2C9), CYP2C9 (gene 1559); assay: CLD_CYP2C9_6hr: CellzDirect (CLD) Gene Expression Assay for xenobiotic metabolism (CYP2C9) at 6 hours (AID 2283664)
Method in brief: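 Primary human hepatocytes dosed daily with test chemicals at multiple concentrations; harvested at 6 h. CYP2C9 mRNA induction measured by qNPA chemiluminescence. Gain of signal fitted against 0.2% DMSO vehicle; cytotoxicity annotated from phase-contrast morphology.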

[3] = read-out: organic anion transporter (SLCO1B1), SLCO1B1 (gene 10599); assay: CLD_SLCO1B1_6hr: CellzDirect (CLD) Gene Expression Assay for organic anion transporter (SLCO1B1) at 6 hours (AID 2283668);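 further: active means mRNA induction above DMSO baseline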
Method in brief: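 Primary human hepatocytes dosed daily with test chemicals (multiple concentrations) in 0.2% DMSO vehicle; harvested at 6 h. SLCO1B1 mRNA quantified by qNPA chemiluminescence, fitted as gain-of-signal versus DMSO; cytotoxicity from phase-contrast morphology flagged alongside.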

[4] = CLD_ACTIN_24hr: CellzDirect (CLD) Gene Expression Assay for Baseline Control (Actin) at 24 hours (AID 2283670)
Method in brief: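 Primary human hepatocytes dosed over multiple concentrations with 0.2% DMSO vehicle; actin mRNA measured at 24 h by qNPA chemiluminescence. Background control endpoint, fitted as gain of signal versus DMSO.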

[5] = read-out: Cytochrome P450 2C19 (Homo sapiens) (UniProt P33261); assay: CLD_CYP2C19_6hr: CellzDirect (CLD) Gene Expression Assay for xenobiotic metabolism (CYP2C19) at 6 hours (AID 2283678)
Method in brief: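 Primary human hepatocytes from two donor preparations were dosed daily, with 0.2% DMSO as vehicle, and harvested 6 h after dosing. CYP2C19 mRNA induction was measured by qNPA chemiluminescence and fitted as gain of signal against DMSO.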

[6] = read-out: Glyceraldehyde-3-phosphate dehydrogenase (Homo sapiens) (UniProt P04406); assay: CLD_GAPDH_6hr: CellzDirect (CLD) Gene Expression Assay for Baseline Control (Glyceraldehyde 3-phosphate dehydrogenase) at 6 hours (AID 2283681);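 on outcome: active means increased signal relative to DMSO vehicle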
Method in brief: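 Primary human hepatocytes from two donor preparations, dosed at multiple concentrations with 0.2% DMSO vehicle; GAPDH mRNA measured 6 h after dosing by chemiluminescent quantitative nuclease protection assay (qNPA) on denatured lysates. Serves as background control; cytotoxicity annotated by morphology.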

[7] = read-out: HMG-CoA synthase (HMGCS2), HMGCS2 (gene 3158); assay: CLD_HMGCS2_6hr: CellzDirect (CLD) Gene Expression Assay for HMG-CoA synthase (HMGCS2) at 6 hours (AID 2283682);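 further: actives raise HMGCS2 transcript above the 0.2% DMSO vehicle baseline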
Method in brief: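 Primary human hepatocytes dosed daily with fresh chemical, 0.2% DMSO vehicle; HMGCS2 mRNA measured at 6 h by qNPA chemiluminescence. Gain of signal fitted against DMSO; cytotoxicity flagged from phase-contrast morphology.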

[8] = Tanguay_ZF_120hpf_TR_legacy: (Legacy) Oregon State University Tanguay Lab 120 Hour Post-fertilization zebrafish Assay for Touch Response (AID 2283667)
Method in brief: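 Tropical 5D wild-type zebrafish embryos statically exposed to 120 hpf at 28°C, sealed and dark-covered, 0.64% DMSO final; touch response scored as present/absent by brightfield microscopy at 120 hpf. Trimethyltin chloride 5 uM positive control; dead embryos not scored.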

[9] = read-out: sulfotransferase (SULT2A), SULT2A1 (gene 6822); assay: CLD_SULT2A_6hr: CellzDirect (CLD) Gene Expression Assay for sulfotransferase (SULT2A) at 6 hours (AID 2283669);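 further: hits raise transcript level above the DMSO vehicle baseline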
Method in brief: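 Primary human hepatocytes from two donor preparations were dosed daily with chemicals or 0.2% DMSO and harvested at 6 h. Transcript induction read by qNPA chemiluminescence, fitted for gain of signal relative to DMSO; morphology-based cytotoxicity annotated.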

[10] = read-out: ABC Transporter (ABCB11), ABCB11 (gene 8647); assay: CLD_ABCB11_6hr: CellzDirect (CLD) Gene Expression Assay for ABC Transporter (ABCB11) at 6 hours (AID 2283675);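 further: hits raise ABCB11 mRNA level so AC50 marks induction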
Method in brief: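 Human primary hepatocytes (two donor preparations) given fresh chemical daily at multiple concentrations, vehicle 0.2% DMSO. ABCB11 mRNA induction measured 6 h after dosing by qNPA chemiluminescence versus DMSO; cytotoxicity annotated from morphology.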

[11] = read-out: xenobiotic metabolism (CYP1A2), CYP1A2 (gene 1544); assay: CLD_CYP1A2_24hr: CellzDirect (CLD) Gene Expression Assay for xenobiotic metabolism (CYP1A2) at 24 hours (AID 2283683)
Method in brief: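 Primary human hepatocytes from two donor preparations dosed daily with multiple concentrations of chemical, 0.2% DMSO vehicle. CYP1A2 mRNA at 24 h quantified by qNPA chemiluminescence; gain of signal analyzed relative to DMSO. Cytotoxicity flagged by phase-contrast morphology.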

[12] = read-out: xenobiotic metabolism (CYP1A1), CYP1A1 (gene 1543); assay: CLD_CYP1A1_24hr: CellzDirect (CLD) Gene Expression Assay for xenobiotic metabolism (CYP1A1) at 24 hours (AID 2283673);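 further: CYP1A1 mRNA level by quantitative nuclease protection with chemiluminescence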
Method in brief: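 Primary human hepatocytes dosed daily with fresh solutions in 0.2% DMSO vehicle. mRNA measured at 24 h by quantitative nuclease protection assay with chemiluminescence; gain-of-signal fit versus DMSO, with morphology-based cytotoxicity flags.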

[13] = read-out: Cytochrome P450 2B6 (Homo sapiens) (UniProt P20813); assay: CLD_CYP2B6_6hr: CellzDirect (CLD) Gene Expression Assay for xenobiotic metabolism (CYP2B6) at 6 hours (AID 2283677);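 further: actives raise CYP2B6 transcript above DMSO baseline so AC50 marks an inducer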
Method in brief: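 Primary human hepatocytes dosed with chemicals at multiple concentrations, vehicle 0.2% DMSO; CYP2B6 mRNA induction measured 6 h after dosing by quantitative nuclease protection assay with chemiluminescence, gain of signal fitted relative to DMSO.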

[14] = read-out: ABC Transporter (ABCB1), ABCB1 (gene 5243); assay: CLD_ABCB1_24hr: CellzDirect (CLD) Gene Expression Assay for ABC Transporter (ABCB1) at 24 hours (AID 2283684);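 further: potency for increase in ABCB1 mRNA relative to DMSO vehicle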
Method in brief: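 Primary human hepatocytes, two donor preparations, dosed daily with fresh solutions; vehicle 0.2% DMSO; harvested at 24 h. ABCB1 mRNA measured by quantitative nuclease protection assay (chemiluminescence); morphology-based cytotoxicity annotated.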

## CNC(=O)Oc1cccc2ccccc12
[1]
  AC50: active: 6.08 µM
[2]
  AC50: inconclusive: 20 µM
[3]
  AC50: inconclusive: 20 µM
[4]
  AC50: inconclusive: 20 µM
[5]
  AC50: inconclusive: 20 µM
[6]
  AC50: inconclusive: 20 µM
[7]
  AC50: inconclusive: 20 µM

## CC(Oc1ccc(Cl)cc1Cl)C(=O)O (configuration not stated)
[1]
  AC50: inconclusive: 1.88 µM
[2]
  AC50: inconclusive: 0.0563 µM
[8]
  AC50: inconclusive: 39.7 µM
[3]
  AC50: inconclusive: 20 µM
[9]
  AC50: inconclusive: 0.0282 µM
[4]
  outcome: inactive
[10]
  outcome: inactive
[5]
  AC50: inconclusive: 20 µM
[6]
  outcome: inactive
[7]
  AC50: inconclusive: 0.0004 µM
[11]
  AC50: inconclusive: 0.000451 µM

## Oc1ccc(Cl)cc1Cc1ccccc1
[1]
  AC50: inconclusive: 0.0004 µM
[2]
  AC50: inconclusive: 5.38 µM
[8]
  AC50: inconclusive: 628 nM and inconclusive: 20.4 µM
[3]
  AC50: inconclusive: 4.18 µM
[9]
  AC50: inconclusive: 2 µM
[12]
  AC50: inconclusive: 0.0004 µM
[13]
  AC50: inconclusive: 0.00108 µM
[11]
  AC50: inconclusive: 20 µM
[14]
  AC50: inconclusive: 20 µM
